Drawing on US20100061989A1, this text covers binding for 1 molecule.

This experiment addresses protein methyltransferase PRMT-5 (human, untagged) (human). Briefly: FLAG immunoprecipitation from K562 cells expressing NF-E4-FLAG, mass spectrometry of gel bands.

These are yes or no findings as the source states them, for the method shown. In cells and extracts the contact can be indirect. A yes stands for co-enrichment or nearness to the bait. Other partners may have been found. Where a sequence is shown, tags or fusion partners need not be part of it.

B1: NF-E4-FLAG (protein, UniProt Q86UQ8 1-179, looked up, not shown: small tags and cut ends)
chain: MPRVVCWHTLKSLNGYKNLSSGAETREGLRSSSPVDLPLRPRKQATAAGQRKLLSLQLLLCACTSVTDLTYWGPAGHGATAPHRSLLAIHLHLVPASSAAMKATGPHNAQTQVNPQGHAPSAEDPTGTWTVSGPCKDHPHPFLSQSNPPTRISSALPLKTDSALEQTPQQLPSLHLSQG
Take B1: the binding entry is reported as “binds”.
